This assay addresses ABI4 fused to the C-terminal YFP fragment. Description: split reporter; split-YFP fusions (YFP^n and YFP^c) co-expressed by Agrobacterium infiltration in N. benthamiana leaves; confocal microscopy after 2-3 days; also imaged 2 hours after spraying with eH2O2.

Data on one molecule can be found in PMC9893415.

These are yes or no findings as the source states them, for the method shown. Binding seen in cells or lysates may run through a third protein. Sequences can lack the tags named with a protein.

B1: NOVEL CYS-RICH RECEPTOR KINASE (NCRK) fused to the N-terminal YFP fragment (receptor, UniProt Q8VYY5 24-565)
chain: GVSNYTCTCFSSGNRSDILESNCSTSCNCRPDRDQWVCLCPANGFPVIAIGGSNSSCFTSCNCSAGATKSSKKQYLSRKLVIVILLFCGVLISLAFLASMICYICRKDKFSGQTPSVSSDRESSWHSSANLINRKSSVSQSKISISSSVAGCFFQNASLFCVSKPETIHGAIFQFSYTELEQATNKFSSNSVIGHGGSSCVYRGQLKDGKTAAIKRLNTPKGDDTDTLFSTEVELLSRLHHYHVVPLIGYCSEFHGKHAERLLVFEYMSYGSLRDCLDGELGEKMTWNIRISVALGAARGLEYLHEAAAPRILHRDVKSTNILLDENWHAKITDLGMAKCLSSDGLQSGSSSPTTGLQGTFGYFAPEYAIAGCASQMSDVFSFGVVLLELITGRKPIQKPSNNKGEESLVIWAVPRLQDSKRVIEELPDPRLNGKFAEEEMQIMAYLAKECLLLDPESRPTMREVVQILSTITPDTSSRRRNFPINYLFQSNEKKKESKVGWSRGGSKSGQEEETVDLTEPRFESFCLPNVKPVLLEPSAHI
B1: the binding entry is reported as “no binding”.
